# Assay results published in the supplement of paper PMC3334620.
# In all, about 33,000 sequences were measured (“E-score (-0.5 to 0.5)”: median about -0.0034, highest 2% from about 0.25 on). The list shows a part of the results.
# Molecular target: T1, Yap3 (UniProt P38749)
# T1 sequence: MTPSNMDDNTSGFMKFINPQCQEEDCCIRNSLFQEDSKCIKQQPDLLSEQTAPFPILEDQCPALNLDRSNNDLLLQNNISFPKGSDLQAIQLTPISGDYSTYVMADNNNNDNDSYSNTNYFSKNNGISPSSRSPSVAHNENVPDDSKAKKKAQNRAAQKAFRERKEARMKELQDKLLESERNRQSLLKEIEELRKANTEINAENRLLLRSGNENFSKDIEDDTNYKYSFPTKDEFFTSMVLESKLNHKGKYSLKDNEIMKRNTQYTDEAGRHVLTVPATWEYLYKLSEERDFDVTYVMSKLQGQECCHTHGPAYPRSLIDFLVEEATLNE
# Assay: PBM E-score (8-mer binding enrichment) (E-score (-0.5 to 0.5)); higher = stronger / more preferred TF binding
# Settings: protein concentration: 100 nM; construct: GST-full length
# Procedure: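 Universal 'all 10-mer' protein binding microarrays (Agilent AMADID 015681) probed with GST-tagged S. cerevisiae TFs (full-length or DBD) made by in vitro transcription/translation (PURExpress), about 100-200 nM. Bound TF was detected with fluorescent anti-GST. Each ungapped 8-mer (which stands for itself and its reverse complement) is scored by the PBM enrichment score (E-score), a modified Wilcoxon-Mann-Whitney statistic from -0.5 to +0.5, computed with the Universal PBM Analysis Suite. Scale: above 0.35 generally sequence-specific binding.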
row,Sequence,PBM E-score
1,CGGCGATA,0.00508
2,CGTTCAGA,-0.11
3,CAACACTG,0.00462
4,CGCTACCC,-0.214
5,CGATAACA,0.097
6,CTTAATGA,0.14
7,CCGACTAG,-0.0945
8,AAATTTAT,0.144
9,AGCGGCAT,0.126
10,GACGATAA,0.151
11,AGTATCAC,0.0393
12,GATCTTCC,-0.134
13,AATCACGG,0.211
14,GCATTTCC,0.153
15,GTCCAGGA,-0.0965
16,TTCACCAA,0.108
17,AGAAGCCA,0.044
18,ATGAGGAG,-0.0578
19,CCCGTCAC,-0.0882
20,ATCGATGC,0.133
21,ACTTAATA,0.154
22,AGCCGTGC,-0.233
23,CAAAGCTA,0.0774
24,ACGCCAAA,-0.00737
25,CCGCGAAA,-5e-05

row,Sequence,PBM E-score
1,GGATTGAC,0.0323
2,AACACTAC,0.132
3,CGGCACAG,-0.11
4,GAGATTTA,-0.116
5,GTCGTACA,0.174
6,CCACACGG,-0.162
7,ATGCGGAA,0.0117
8,CACTATGC,0.068
9,AGAATCGC,-0.0138
10,ATCTCCAC,-0.00177
11,AATAAAAT,0.239
12,GCCTGGCA,-0.289
13,GGTGTAGA,0.0432
14,AGCACCGG,-0.177
15,AGCATCCT,0.0013
16,AGACATCT,-0.0925
17,GATTCCCA,-0.077
18,AAGCGTTC,-0.0829
19,CGAATTCC,0.183
20,AGTCCCAC,-0.141
21,AAAGCTTA,0.0874
22,ACAACCAA,0.11
23,GAGCATAC,0.118
24,GCAACAAC,-0.0413
25,CGAAATAA,0.211

row,Sequence,PBM E-score
1,TCACTTCA,0.0508
2,ATGCAATA,0.112
3,AAGAGGAA,0.0858
4,AGGTTTGA,-0.014
5,ACATATTA,0.305
6,CTGGTAAG,-0.0397
7,TCAGCGCA,-0.216
8,GGCGGTAC,-0.209
9,GATGCGCA,-0.0114
10,ATGTGTGG,0.0791
11,AAACTAAC,0.232
12,AAGACACC,-0.0353
13,ATTAGTCC,0.207
14,GGAGCGTA,0.0758
15,ACAAATAT,0.274
16,AGACAACA,0.0437
17,TCTCTCAA,0.153
18,ACTCGTTA,-0.115
19,CGTTTCAC,0.0177
20,ACACGAAC,-0.0288
21,CACTAACA,0.162
22,ATCGTCAT,0.248
23,CGGGGCAA,-0.0912
24,ACGACTGG,-0.144
25,CCTGCCTC,-0.113

# Taken from above.
# PBM E-score, ACACGAAC reads -0.0288
# PBM E-score, CACTAACA reads 0.162
# PBM E-score, AAGACACC reads -0.0353
# PBM E-score, GATGCGCA reads -0.0114
# PBM E-score, GGAGCGTA reads 0.0758
# PBM E-score, ATTAGTCC reads 0.207

# (list continues)

row,Sequence,PBM E-score
1,CCCGTACG,-0.149
2,CCTTCAAC,0.0905
3,CTTTAAAG,-0.00848
4,CATGTCAG,-0.123
5,CTGTCACC,-0.108
6,GCTTGGCC,-0.166
7,CTAGAATC,-0.0329
8,TCAGCCCA,-0.106
9,CATCACTC,-0.153
10,AGTGAGCC,-0.0126
11,GATCAAAC,0.031
12,AGTTGACG,0.198
13,GAAGCCTA,-0.0617
14,CCCTCAGA,-0.154
15,ATGCCTCC,-0.0944
16,GGGAGGAC,-0.199
17,ACCGAAGT,0.0663
18,CGGACACA,-0.138
19,GAACCCCC,-0.473
20,AATAGTCC,-0.00891
21,CAGGATCC,-0.0105
22,AATTTCCT,0.13
23,AGACTATA,0.205
24,AGTAAACC,-0.0017
25,CGACGTCA,0.0828

# Reformatted: results already given
row | Sequence | PBM E-score
4 | CATGTCAG | -0.123
9 | CATCACTC | -0.153
23 | AGACTATA | 0.205

# (list continues)

row,Sequence,PBM E-score
1,CAATTAAA,0.22
2,CGCTTGCC,-0.069
3,CACGGACG,0.0289
4,TTAGAGAA,-0.117
5,AATATCCT,0.0852
6,CCGGTCAG,-0.18
7,ATCCGGTC,-0.106
8,GTCCATAA,-0.0433
9,GCCGAAGA,0.119
10,GGGGCAAA,-0.0277
11,CATCTAAA,0.0507
12,AAATGCCT,0.0646
13,GACATGTA,0.162
14,ACTGCAAC,-0.0198
15,GCCTAGCA,-0.237
16,CGCTGCCG,-0.265
17,GACGGGCC,-0.268
18,TAACTAAA,0.165
19,CCGCGGCC,-0.174
20,AGAATCTG,0.00295
21,GCTAAAAA,-0.0143
22,CACGCATA,0.0859
23,ACGTCTTA,-0.0638
24,CAGAGTAC,-0.104
25,TGCCTAAA,0.0234

row,Sequence,PBM E-score
1,CAACGCTG,-0.0537
2,AGCGTTTA,0.0398
3,GTCCGCTA,-0.057
4,GAAGTGAA,0.0581
5,AGCGCCCA,-0.303
6,ACTAGGTG,-0.0963
7,GCGCATAA,0.131
8,ATCTCCCA,0.0495
9,ATCTTACC,-0.0311
10,GCATAGGA,0.00911
11,ATTAGGTA,0.167
12,GCGCCGCA,0.106
13,TCCCACCA,-0.125
14,CGGAACAG,-0.0265
15,GAAGCCGC,-0.039
16,GACTGCTC,-0.113
17,CAGGCATA,-0.119
18,GATAGCAC,-0.081
19,GGGACGGA,-0.334
20,AAGTACGA,0.188
21,CGAACCAC,-0.0638
22,AACCGATT,0.133
23,AGTGCTCC,-0.276
24,AGAATCAG,0.104
25,ATGTATCA,0.2

row,Sequence,PBM E-score
1,GTAAATCA,0.219
2,AAAATGTT,0.166
3,GCTGGACC,-0.242
4,GAGTAATC,0.103
5,CCCAGACC,-0.195
6,CGAGTCCA,-0.178
7,GAGCGAAA,0.125
8,CTGGGCTC,-0.267
9,ACTTAACT,0.171
10,CTCGGGCC,-0.225
11,CAATGGAC,0.0697
12,ACTGCATA,0.0972
13,CCGCCCAG,-0.253
14,GACTGCTA,-0.148
15,ACCACAAC,0.235
16,ATTTAGCG,-0.00334
17,CACACTAA,0.211
18,AGAGACCC,-0.179
19,ACTCGTAT,0.116
20,GACCGTGC,-0.181
21,CCGTCTCC,-0.083
22,CAGGAGCG,-0.0281
